PubChem BioAssay AID1224830 – NIAID | 2016

Aim: 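Genes whose knock-down alters the TNF-alpha reporter response to LPS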 (primary screen)
Cell system: human THP-1 monocytic leukaemia cells, TNF dual-luciferase reporter clone, PMA-differentiated to macrophage-like cells
Reagents: siRNA pool against human genes, 50 nM
Duration: LPS for 4 h, given about 3 days after siRNA transfection
Challenge: bacterial LPS (TLR4 ligand), 10 ng/ml
Measured: 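TNF firefly reporter luminescence divided by renilla, normalised to the plate median, then turned into a robust z-score for each replicate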
Reading the numbers: TNF reporter robust z-score: higher = stronger TNF reporter response to LPS
Rule for the call: 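a well is active when its z-score exceeds 2.8 or falls below -1.5; control wells carry no call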
Here is one part, drawn at random, of about 18,000 reagents. About 2,900 of them (16%) count as active. 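Calls are made per well; low scores hint the gene aids the LPS response, high scores that it dampens it.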 Repeated entries: four replicate wells of each siRNA pool.

| gene | TNF reporter robust z-score | Outcome |
| --- | --- | --- |
| GGT2P (gamma-glutamyltransferase 2, pseudogene) | -0.44 | inactive |
| GGT2P (gamma-glutamyltransferase 2, pseudogene) | 1.15 | inactive |
| GGT2P (gamma-glutamyltransferase 2, pseudogene) | 1.26 | inactive |
| GGT2P (gamma-glutamyltransferase 2, pseudogene) | -0.8 | inactive |
| SPEF1 (sperm flagellar and cilia associated 1) | 0.34 | inactive |
| SPEF1 (sperm flagellar and cilia associated 1) | 0.41 | inactive |
| SPEF1 (sperm flagellar and cilia associated 1) | 0.71 | inactive |
| SPEF1 (sperm flagellar and cilia associated 1) | 1.24 | inactive |
| APEH (acylaminoacyl-peptide hydrolase) | 1.19 | inactive |
| APEH (acylaminoacyl-peptide hydrolase) | 0.59 | inactive |
| APEH (acylaminoacyl-peptide hydrolase) | 0.82 | inactive |
| APEH (acylaminoacyl-peptide hydrolase) | -0.69 | inactive |
| TSC1 (TSC complex subunit 1) | -1.16 | inactive |
| TSC1 (TSC complex subunit 1) | 0.62 | inactive |
| TSC1 (TSC complex subunit 1) | 1.29 | inactive |
| TSC1 (TSC complex subunit 1) | 0.46 | inactive |
| CLC (Charcot-Leyden crystal galectin) | -1.19 | inactive |
| CLC (Charcot-Leyden crystal galectin) | 0.57 | inactive |
| CLC (Charcot-Leyden crystal galectin) | -0.83 | inactive |
| CLC (Charcot-Leyden crystal galectin) | -0.3 | inactive |
| C8B (complement C8 beta chain) | 0.58 | inactive |
| C8B (complement C8 beta chain) | 0.56 | inactive |
| C8B (complement C8 beta chain) | 0.02 | inactive |
| C8B (complement C8 beta chain) | 0.45 | inactive |
| ASPHD2 (aspartate beta-hydroxylase domain containing 2) | 0.23 | inactive |
| ASPHD2 (aspartate beta-hydroxylase domain containing 2) | 0.41 | inactive |
| ASPHD2 (aspartate beta-hydroxylase domain containing 2) | 2.42 | inactive |
| ASPHD2 (aspartate beta-hydroxylase domain containing 2) | 1.25 | inactive |
| CDADC1 (cytidine and dCMP deaminase domain containing 1) | -1.77 | active |
| CDADC1 (cytidine and dCMP deaminase domain containing 1) | -1.47 | inactive |
| CDADC1 (cytidine and dCMP deaminase domain containing 1) | -0.41 | inactive |
| CDADC1 (cytidine and dCMP deaminase domain containing 1) | -0.05 | inactive |
| FNDC4 (fibronectin type III domain containing 4) | -0.33 | inactive |
| FNDC4 (fibronectin type III domain containing 4) | 0.37 | inactive |
| FNDC4 (fibronectin type III domain containing 4) | 0.51 | inactive |
| FNDC4 (fibronectin type III domain containing 4) | -0.67 | inactive |
| SLC15A1 | 0.5 | inactive |
| SLC15A1 | -0.71 | inactive |
| SLC15A1 | -0.55 | inactive |
| SLC15A1 | 0.19 | inactive |
| VARS1 (valyl-tRNA synthetase 1) | 0.57 | inactive |
| VARS1 (valyl-tRNA synthetase 1) | 1.57 | inactive |
| VARS1 (valyl-tRNA synthetase 1) | 1.38 | inactive |
| VARS1 (valyl-tRNA synthetase 1) | 2.31 | inactive |
| CCDC15 (coiled-coil domain containing 15) | 0.48 | inactive |
| CCDC15 (coiled-coil domain containing 15) | -0.73 | inactive |
| CCDC15 (coiled-coil domain containing 15) | -0.62 | inactive |
| CCDC15 (coiled-coil domain containing 15) | -1.38 | inactive |
| ANKRD28 (ankyrin repeat domain 28) | 0.23 | inactive |
| ANKRD28 (ankyrin repeat domain 28) | -0.01 | inactive |
| ANKRD28 (ankyrin repeat domain 28) | 0.08 | inactive |
| ANKRD28 (ankyrin repeat domain 28) | 0.25 | inactive |

A portion taken from the entries so far, as a working copy:
| gene | TNF reporter robust z-score | Outcome |
| --- | --- | --- |
| C8B (complement C8 beta chain) | 0.58 | inactive |
| C8B (complement C8 beta chain) | 0.56 | inactive |
| C8B (complement C8 beta chain) | 0.02 | inactive |
| C8B (complement C8 beta chain) | 0.45 | inactive |
| ASPHD2 (aspartate beta-hydroxylase domain containing 2) | 0.23 | inactive |
| ASPHD2 (aspartate beta-hydroxylase domain containing 2) | 0.41 | inactive |
| ASPHD2 (aspartate beta-hydroxylase domain containing 2) | 2.42 | inactive |
| ASPHD2 (aspartate beta-hydroxylase domain containing 2) | 1.25 | inactive |
| CDADC1 (cytidine and dCMP deaminase domain containing 1) | -1.77 | active |
| CDADC1 (cytidine and dCMP deaminase domain containing 1) | -1.47 | inactive |
| CDADC1 (cytidine and dCMP deaminase domain containing 1) | -0.41 | inactive |
| CDADC1 (cytidine and dCMP deaminase domain containing 1) | -0.05 | inactive |
| FNDC4 (fibronectin type III domain containing 4) | -0.33 | inactive |
| FNDC4 (fibronectin type III domain containing 4) | 0.37 | inactive |
| FNDC4 (fibronectin type III domain containing 4) | 0.51 | inactive |

The listing continues:
| gene | TNF reporter robust z-score | Outcome |
| --- | --- | --- |
| RIPK2 (receptor interacting serine/threonine kinase 2) | 0.29 | inactive |
| RIPK2 (receptor interacting serine/threonine kinase 2) | 0.71 | inactive |
| RIPK2 (receptor interacting serine/threonine kinase 2) | 0.64 | inactive |
| RIPK2 (receptor interacting serine/threonine kinase 2) | 1.64 | inactive |
| HAS1 (hyaluronan synthase 1) | 0.19 | inactive |
| HAS1 (hyaluronan synthase 1) | 0.83 | inactive |
| HAS1 (hyaluronan synthase 1) | 1.13 | inactive |
| HAS1 (hyaluronan synthase 1) | 1.28 | inactive |
| KCTD15 (potassium channel tetramerization domain containing 15) | -0.31 | inactive |
| KCTD15 (potassium channel tetramerization domain containing 15) | -0.4 | inactive |
| KCTD15 (potassium channel tetramerization domain containing 15) | 0.22 | inactive |
| KCTD15 (potassium channel tetramerization domain containing 15) | -0.73 | inactive |
| OR51M1 (olfactory receptor family 51 subfamily M member 1) | -1.47 | inactive |
| OR51M1 (olfactory receptor family 51 subfamily M member 1) | -1.15 | inactive |
| OR51M1 (olfactory receptor family 51 subfamily M member 1) | -1.33 | inactive |
| OR51M1 (olfactory receptor family 51 subfamily M member 1) | -1.31 | inactive |
| RTTN (rotatin) | -0.74 | inactive |
| RTTN (rotatin) | -0.32 | inactive |
| RTTN (rotatin) | -0.21 | inactive |
| RTTN (rotatin) | 0.06 | inactive |
| AP1AR | 0.65 | inactive |
| AP1AR | 0.21 | inactive |
| AP1AR | 0.5 | inactive |
| AP1AR | 0.01 | inactive |
| MICB (MHC class I polypeptide-related sequence B) | 1.38 | inactive |
| MICB (MHC class I polypeptide-related sequence B) | 2.62 | inactive |
| MICB (MHC class I polypeptide-related sequence B) | 1.42 | inactive |
| MICB (MHC class I polypeptide-related sequence B) | 2.63 | inactive |
| ARL6IP1 (ARL6 interacting reticulophagy regulator 1) | 1.28 | inactive |
| ARL6IP1 (ARL6 interacting reticulophagy regulator 1) | 1.05 | inactive |
| ARL6IP1 (ARL6 interacting reticulophagy regulator 1) | 0.9 | inactive |
| ARL6IP1 (ARL6 interacting reticulophagy regulator 1) | 1.53 | inactive |
| ACBD7 (acyl-CoA binding domain containing 7) | 1.18 | inactive |
| ACBD7 (acyl-CoA binding domain containing 7) | 1.39 | inactive |
| ACBD7 (acyl-CoA binding domain containing 7) | -0.13 | inactive |
| ACBD7 (acyl-CoA binding domain containing 7) | 0.65 | inactive |
| CREB3L4 (cAMP responsive element binding protein 3 like 4) | 0.63 | inactive |
| CREB3L4 (cAMP responsive element binding protein 3 like 4) | 0.82 | inactive |
| CREB3L4 (cAMP responsive element binding protein 3 like 4) | 0.92 | inactive |
| CREB3L4 (cAMP responsive element binding protein 3 like 4) | 0.15 | inactive |
| ATP7A (ATPase copper transporting alpha) | -1.03 | inactive |
| ATP7A (ATPase copper transporting alpha) | -0.6 | inactive |
| ATP7A (ATPase copper transporting alpha) | 0.22 | inactive |
| ATP7A (ATPase copper transporting alpha) | -0.15 | inactive |
| ECI2 (enoyl-CoA delta isomerase 2) | -1.23 | inactive |
| ECI2 (enoyl-CoA delta isomerase 2) | -0.52 | inactive |
| ECI2 (enoyl-CoA delta isomerase 2) | -0.21 | inactive |
| ECI2 (enoyl-CoA delta isomerase 2) | -0.16 | inactive |
| OR4F29 (olfactory receptor family 4 subfamily F member 29) | -0.42 | inactive |
| OR4F29 (olfactory receptor family 4 subfamily F member 29) | 0.6 | inactive |
| OR4F29 (olfactory receptor family 4 subfamily F member 29) | -0.15 | inactive |
| OR4F29 (olfactory receptor family 4 subfamily F member 29) | 1.56 | inactive |
| CLMN (calmin) | -0.79 | inactive |
| CLMN (calmin) | -0.54 | inactive |
| CLMN (calmin) | -0.21 | inactive |
| CLMN (calmin) | -0.3 | inactive |
| AMER2 (APC membrane recruitment protein 2) | – | inactive |
| CCDC82 (coiled-coil domain containing 82) | -1.04 | inactive |
| CCDC82 (coiled-coil domain containing 82) | -1.31 | inactive |
| CCDC82 (coiled-coil domain containing 82) | -0.23 | inactive |
| CCDC82 (coiled-coil domain containing 82) | -0.58 | inactive |
